Results as given in the supplement of paper PMC10849652.
The list shows a part of the results.

Sequences of proteins named here, by UniProt entry; tags and fusion partners are left off. A change or cut given only in a name is not applied to a line headed by its entry.
UniProt Q8NB78: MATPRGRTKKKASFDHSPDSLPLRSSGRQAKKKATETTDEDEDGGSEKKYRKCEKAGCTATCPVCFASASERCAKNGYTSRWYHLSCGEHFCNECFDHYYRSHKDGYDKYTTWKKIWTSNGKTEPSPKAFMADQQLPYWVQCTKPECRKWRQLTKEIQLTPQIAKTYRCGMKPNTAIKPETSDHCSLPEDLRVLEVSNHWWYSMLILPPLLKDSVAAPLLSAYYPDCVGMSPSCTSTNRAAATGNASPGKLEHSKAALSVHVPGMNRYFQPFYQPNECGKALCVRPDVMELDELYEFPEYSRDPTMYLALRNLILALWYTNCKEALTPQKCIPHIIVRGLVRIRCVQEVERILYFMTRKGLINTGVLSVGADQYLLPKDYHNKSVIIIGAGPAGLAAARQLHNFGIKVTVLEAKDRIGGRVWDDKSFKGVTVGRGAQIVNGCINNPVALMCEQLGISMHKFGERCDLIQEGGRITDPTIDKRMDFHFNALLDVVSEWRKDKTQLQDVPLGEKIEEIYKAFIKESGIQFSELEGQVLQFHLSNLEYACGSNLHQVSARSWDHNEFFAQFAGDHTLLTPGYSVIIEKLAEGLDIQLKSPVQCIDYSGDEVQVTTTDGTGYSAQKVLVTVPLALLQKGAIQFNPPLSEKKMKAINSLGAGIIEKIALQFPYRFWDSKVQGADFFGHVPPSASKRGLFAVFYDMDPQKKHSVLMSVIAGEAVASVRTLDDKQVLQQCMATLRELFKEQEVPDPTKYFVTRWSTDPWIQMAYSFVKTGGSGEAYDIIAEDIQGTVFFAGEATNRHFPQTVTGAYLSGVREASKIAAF
UniProt Q96SY0, whole entry, looked up: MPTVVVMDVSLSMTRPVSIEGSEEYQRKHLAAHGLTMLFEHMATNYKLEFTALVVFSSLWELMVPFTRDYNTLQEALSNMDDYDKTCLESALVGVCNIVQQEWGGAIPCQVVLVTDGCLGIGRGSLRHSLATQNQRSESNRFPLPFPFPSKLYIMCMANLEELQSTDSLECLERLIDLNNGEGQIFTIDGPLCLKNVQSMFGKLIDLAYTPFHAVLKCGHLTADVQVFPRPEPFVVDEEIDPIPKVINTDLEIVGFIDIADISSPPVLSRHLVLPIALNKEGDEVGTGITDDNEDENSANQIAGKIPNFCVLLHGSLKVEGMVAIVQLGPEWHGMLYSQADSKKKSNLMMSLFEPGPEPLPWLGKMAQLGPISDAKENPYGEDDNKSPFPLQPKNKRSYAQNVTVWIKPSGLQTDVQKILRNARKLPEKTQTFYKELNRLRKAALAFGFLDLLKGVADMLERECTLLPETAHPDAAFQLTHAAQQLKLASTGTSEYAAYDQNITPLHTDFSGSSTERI
UniProt Q8IY47: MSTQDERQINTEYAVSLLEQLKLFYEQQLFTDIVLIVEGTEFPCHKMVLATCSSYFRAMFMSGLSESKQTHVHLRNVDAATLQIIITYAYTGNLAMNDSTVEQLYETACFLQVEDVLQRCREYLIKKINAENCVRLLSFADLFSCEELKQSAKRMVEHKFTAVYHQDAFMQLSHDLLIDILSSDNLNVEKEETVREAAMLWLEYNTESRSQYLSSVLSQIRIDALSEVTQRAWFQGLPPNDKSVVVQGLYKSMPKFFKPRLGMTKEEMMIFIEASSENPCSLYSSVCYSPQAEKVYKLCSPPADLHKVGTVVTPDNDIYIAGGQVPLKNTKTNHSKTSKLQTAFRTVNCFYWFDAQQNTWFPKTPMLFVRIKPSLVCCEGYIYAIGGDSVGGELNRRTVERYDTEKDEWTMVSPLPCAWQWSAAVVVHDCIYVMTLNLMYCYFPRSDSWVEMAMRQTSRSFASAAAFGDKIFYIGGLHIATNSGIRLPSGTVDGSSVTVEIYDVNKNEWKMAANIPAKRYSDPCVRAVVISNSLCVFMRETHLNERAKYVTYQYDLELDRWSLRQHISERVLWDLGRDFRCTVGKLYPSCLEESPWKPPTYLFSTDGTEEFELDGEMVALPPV
UniProt Q6DN90: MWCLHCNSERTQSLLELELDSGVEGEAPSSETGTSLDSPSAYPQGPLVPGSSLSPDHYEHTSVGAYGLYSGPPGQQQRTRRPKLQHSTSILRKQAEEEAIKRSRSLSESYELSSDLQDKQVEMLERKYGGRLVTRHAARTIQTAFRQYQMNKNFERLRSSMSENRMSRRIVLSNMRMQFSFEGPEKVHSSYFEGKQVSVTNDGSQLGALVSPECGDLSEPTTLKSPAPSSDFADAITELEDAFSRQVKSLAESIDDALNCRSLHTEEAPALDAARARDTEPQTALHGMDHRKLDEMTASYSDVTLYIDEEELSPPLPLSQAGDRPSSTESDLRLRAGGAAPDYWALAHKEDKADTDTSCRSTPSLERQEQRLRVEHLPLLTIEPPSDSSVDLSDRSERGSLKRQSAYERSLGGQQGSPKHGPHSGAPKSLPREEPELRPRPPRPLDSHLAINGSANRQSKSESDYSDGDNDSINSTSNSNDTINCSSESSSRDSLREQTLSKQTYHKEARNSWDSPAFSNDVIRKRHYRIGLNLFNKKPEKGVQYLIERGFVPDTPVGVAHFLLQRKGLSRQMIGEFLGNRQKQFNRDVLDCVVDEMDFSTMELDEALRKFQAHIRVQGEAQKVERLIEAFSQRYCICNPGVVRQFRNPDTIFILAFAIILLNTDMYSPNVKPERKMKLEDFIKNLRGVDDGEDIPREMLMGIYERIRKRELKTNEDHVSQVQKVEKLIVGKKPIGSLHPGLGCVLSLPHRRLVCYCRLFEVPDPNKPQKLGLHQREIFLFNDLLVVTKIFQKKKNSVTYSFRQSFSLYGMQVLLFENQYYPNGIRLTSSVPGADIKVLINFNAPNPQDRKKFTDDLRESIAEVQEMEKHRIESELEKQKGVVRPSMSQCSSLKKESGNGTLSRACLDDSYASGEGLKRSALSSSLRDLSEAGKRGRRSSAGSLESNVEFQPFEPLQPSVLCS
UniProt P51617, whole entry, looked up: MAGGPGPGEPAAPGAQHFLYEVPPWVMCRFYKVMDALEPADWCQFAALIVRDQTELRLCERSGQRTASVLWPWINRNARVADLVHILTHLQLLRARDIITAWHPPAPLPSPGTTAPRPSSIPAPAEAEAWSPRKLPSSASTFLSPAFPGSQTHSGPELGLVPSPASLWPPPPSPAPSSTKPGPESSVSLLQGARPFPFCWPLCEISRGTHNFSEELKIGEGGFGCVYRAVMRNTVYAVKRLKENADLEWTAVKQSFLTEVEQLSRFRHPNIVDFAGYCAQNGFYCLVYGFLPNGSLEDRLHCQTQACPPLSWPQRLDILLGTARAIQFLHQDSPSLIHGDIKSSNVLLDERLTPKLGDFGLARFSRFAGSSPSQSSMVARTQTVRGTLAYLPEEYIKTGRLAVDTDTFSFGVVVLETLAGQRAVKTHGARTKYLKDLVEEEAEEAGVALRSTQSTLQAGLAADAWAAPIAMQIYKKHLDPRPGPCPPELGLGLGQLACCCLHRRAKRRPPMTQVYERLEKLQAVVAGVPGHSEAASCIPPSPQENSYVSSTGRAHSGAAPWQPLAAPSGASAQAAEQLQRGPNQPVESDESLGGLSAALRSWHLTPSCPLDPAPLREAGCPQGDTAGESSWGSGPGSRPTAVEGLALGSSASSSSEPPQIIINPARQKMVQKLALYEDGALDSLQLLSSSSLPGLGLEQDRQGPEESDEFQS
UniProt O95251, whole entry, looked up: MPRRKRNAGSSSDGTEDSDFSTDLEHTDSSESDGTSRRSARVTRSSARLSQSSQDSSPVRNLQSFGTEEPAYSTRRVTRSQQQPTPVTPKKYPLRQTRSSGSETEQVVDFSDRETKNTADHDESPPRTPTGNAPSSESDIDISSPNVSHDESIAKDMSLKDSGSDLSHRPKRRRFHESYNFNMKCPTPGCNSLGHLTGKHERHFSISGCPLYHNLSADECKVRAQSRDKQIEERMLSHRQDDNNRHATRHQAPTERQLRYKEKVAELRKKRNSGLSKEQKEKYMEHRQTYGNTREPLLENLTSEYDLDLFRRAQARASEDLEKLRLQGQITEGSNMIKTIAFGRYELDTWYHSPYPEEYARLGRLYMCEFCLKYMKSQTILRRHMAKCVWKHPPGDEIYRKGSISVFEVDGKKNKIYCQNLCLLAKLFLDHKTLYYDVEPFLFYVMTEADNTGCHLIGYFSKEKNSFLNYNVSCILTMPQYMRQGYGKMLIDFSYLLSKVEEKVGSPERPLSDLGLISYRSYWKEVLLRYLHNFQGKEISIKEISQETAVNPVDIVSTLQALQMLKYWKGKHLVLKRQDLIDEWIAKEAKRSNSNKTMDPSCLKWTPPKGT
UniProt Q9UK76: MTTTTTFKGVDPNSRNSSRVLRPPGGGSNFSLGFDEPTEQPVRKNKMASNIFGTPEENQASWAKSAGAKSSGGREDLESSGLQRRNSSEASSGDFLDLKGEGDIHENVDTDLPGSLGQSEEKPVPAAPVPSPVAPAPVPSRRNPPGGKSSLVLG
UniProt Q14653: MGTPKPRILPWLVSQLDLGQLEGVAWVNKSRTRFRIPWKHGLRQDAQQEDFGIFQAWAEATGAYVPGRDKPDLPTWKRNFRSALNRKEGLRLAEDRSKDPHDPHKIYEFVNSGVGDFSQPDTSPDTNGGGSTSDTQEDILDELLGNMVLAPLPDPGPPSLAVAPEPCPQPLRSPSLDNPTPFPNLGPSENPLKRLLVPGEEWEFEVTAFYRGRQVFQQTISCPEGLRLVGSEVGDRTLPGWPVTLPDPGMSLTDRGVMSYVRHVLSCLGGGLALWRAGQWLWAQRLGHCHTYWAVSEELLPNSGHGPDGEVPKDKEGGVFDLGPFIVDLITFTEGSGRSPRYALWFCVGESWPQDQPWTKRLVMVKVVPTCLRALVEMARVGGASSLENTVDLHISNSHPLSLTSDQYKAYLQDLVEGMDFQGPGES
UniProt Q9H7Z6: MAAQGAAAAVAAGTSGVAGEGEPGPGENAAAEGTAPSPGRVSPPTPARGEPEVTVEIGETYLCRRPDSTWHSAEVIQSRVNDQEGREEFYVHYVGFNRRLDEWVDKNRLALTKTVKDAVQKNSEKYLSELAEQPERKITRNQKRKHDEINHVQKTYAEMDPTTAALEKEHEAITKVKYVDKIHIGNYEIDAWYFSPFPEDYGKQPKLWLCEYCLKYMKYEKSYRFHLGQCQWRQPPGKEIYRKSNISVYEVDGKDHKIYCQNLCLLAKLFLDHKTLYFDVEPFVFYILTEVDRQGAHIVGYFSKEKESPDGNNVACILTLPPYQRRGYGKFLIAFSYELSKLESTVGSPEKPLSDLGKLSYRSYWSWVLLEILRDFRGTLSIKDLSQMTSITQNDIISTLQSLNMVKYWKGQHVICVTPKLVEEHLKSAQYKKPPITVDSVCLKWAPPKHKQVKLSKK
UniProt Q9BUE6: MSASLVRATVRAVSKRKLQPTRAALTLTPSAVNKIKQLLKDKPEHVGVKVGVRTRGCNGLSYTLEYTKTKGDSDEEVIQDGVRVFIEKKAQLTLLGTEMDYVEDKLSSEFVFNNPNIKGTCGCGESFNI
UniProt Q9P2N6: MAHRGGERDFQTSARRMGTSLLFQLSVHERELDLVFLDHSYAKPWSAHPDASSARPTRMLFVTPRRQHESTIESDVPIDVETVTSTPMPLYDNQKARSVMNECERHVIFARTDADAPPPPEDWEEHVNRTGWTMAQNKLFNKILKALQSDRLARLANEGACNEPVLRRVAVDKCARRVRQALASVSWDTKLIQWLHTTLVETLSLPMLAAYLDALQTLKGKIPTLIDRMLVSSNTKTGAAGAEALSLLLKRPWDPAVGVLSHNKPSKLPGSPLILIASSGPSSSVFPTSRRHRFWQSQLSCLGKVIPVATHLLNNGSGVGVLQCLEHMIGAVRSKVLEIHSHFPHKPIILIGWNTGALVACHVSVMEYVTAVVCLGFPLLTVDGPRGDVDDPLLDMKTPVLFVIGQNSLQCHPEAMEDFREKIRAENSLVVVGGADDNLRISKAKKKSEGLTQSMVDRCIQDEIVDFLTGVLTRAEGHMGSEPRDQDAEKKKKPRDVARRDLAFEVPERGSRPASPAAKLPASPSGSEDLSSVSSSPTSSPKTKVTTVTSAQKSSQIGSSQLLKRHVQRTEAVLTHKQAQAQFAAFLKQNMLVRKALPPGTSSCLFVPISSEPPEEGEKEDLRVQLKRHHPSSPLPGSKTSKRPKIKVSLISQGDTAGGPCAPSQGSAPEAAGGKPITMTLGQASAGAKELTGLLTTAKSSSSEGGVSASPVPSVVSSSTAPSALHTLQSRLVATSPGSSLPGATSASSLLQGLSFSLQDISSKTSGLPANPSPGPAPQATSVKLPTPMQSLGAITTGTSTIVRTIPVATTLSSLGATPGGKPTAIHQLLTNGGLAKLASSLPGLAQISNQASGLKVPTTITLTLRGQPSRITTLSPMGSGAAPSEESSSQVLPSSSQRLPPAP
UniProt Q8NC54: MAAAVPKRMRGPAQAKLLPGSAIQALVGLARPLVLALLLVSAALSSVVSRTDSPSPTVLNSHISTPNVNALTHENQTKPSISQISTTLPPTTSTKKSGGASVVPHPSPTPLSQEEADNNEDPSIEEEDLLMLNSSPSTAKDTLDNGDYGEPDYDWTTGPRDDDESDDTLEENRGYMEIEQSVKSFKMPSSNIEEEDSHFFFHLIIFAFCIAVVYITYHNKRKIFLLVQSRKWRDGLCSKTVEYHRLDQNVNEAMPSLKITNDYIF

Compound: COc1cc2nc(-c3cc(F)ccc3O)nc(N[C@@H]3CNC[C@H]3C(C)(C)O)c2cc1OC
Experiment: log2 fold change, soluble protein after heating vs DMSO (PISA); higher = thermal stabilisation; K562 lysate, 10 uM; active = over 0.2 and 3.5 SD of the protein, either way, in both replicates (recomputed)
Procedure, shortened: (§1)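 Following dounce homogenisation of K562 pellets in PBS pH 7.4 with 1 mM MgCl2, crude extract at 1 mg/mL protein was incubated for 30 min with 10 μM compound. Aliquots were then heated for 3 min over 48°C-58°C and pooled, NP-40 was added to 0.5% at 4°C, and soluble protein was recovered as the supernatant at 21,000xg for 90 min. Channel-sum-equalised TMTpro 16plex LC-MS/MS quantified this protein. Each value, from duplicates, is a log-two fold change in thermal stability relative to solvent controls.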

log2 fold change, inactive:
ISOC2 (UniProt Q96AB3) 0.043
INTS5 (UniProt Q6P9B9) 0.013
ITPKA (UniProt P23677) 0
IPO11 isoform 2 (UniProt Q9UI26) 0.006
JAGN1 (UniProt Q8N5M9) -0.042
KDM1B (UniProt Q8NB78) -0.009
KDELR2 (UniProt P33947) 0.032
INTS9 (UniProt Q9NV88) -0.008
KCTD10 (UniProt Q9H3F6) 0.09
ISYNA1 (UniProt Q9NPH2) 0.027
ISCU (UniProt Q9H1K1) -0.017
IQGAP1 (UniProt P46940) 0.009
INTS14 (UniProt Q96SY0) 0.015
KDM1A (UniProt O60341) 0.001
KBTBD2 (UniProt Q8IY47) -0.01
IQSEC1 (UniProt Q6DN90) 0.137
IRAK1 (UniProt P51617) 0.096
ITGAV (UniProt P06756) 0.033
KCTD9 (UniProt Q7L273) -0.003
IRF2BPL (UniProt Q9H1B7) -0.013
IRF2BP1 (UniProt Q8IU81) 0.038
ISOC1 (UniProt Q96CN7) 0.019
KAT7 (UniProt O95251) 0.073
JPT1 (UniProt Q9UK76) 0.007
KCTD5 (UniProt Q9NXV2) 0.157
INTS7 (UniProt Q9NVH2) -0.018
IRF3 (UniProt Q14653) -0.011
ITPK1 (UniProt Q13572) -0.036
KAT8 (UniProt Q9H7Z6) -0.033
IPO5 isoform 3 (UniProt O00410) 0.009
ISCA1 isoform 2 (UniProt Q9BUE6) 0.075
JPT2 isoform 3 (UniProt Q9H910) 0.011
KCTD20 (UniProt Q7Z5Y7) -0.095
ITFG1 (UniProt Q8TB96) 0.01
KANSL3 (UniProt Q9P2N6) 0.02
KCT2 (UniProt Q8NC54) 0
JUND (UniProt P17535) -0.058
ISY1 isoform 1 (UniProt Q9ULR0) 0.016
ITGB1 (UniProt P05556) 0.047

Compound: COc1cc2ncnc(Nc3ccc(F)c(Cl)c3)c2cc1OCCCN1CCOCC1 [gefitinib]
Experiment: as above
Procedure, shortened: as §1

log2 fold change, inactive:
ISOC2 (UniProt Q96AB3) -0.045
INTS5 (UniProt Q6P9B9) 0.045
ITPKA (UniProt P23677) 0.011
IPO11 isoform 2 (UniProt Q9UI26) -0.001
JAGN1 (UniProt Q8N5M9) -0.059
KDM1B (UniProt Q8NB78) -0.02
KDELR2 (UniProt P33947) 0.06
INTS9 (UniProt Q9NV88) 0.018
KCTD10 (UniProt Q9H3F6) -0.035
ISYNA1 (UniProt Q9NPH2) 0.033
ISCU (UniProt Q9H1K1) -0.018
IQGAP1 (UniProt P46940) -0.024
INTS14 (UniProt Q96SY0) -0.003
KDM1A (UniProt O60341) 0.006
KBTBD2 (UniProt Q8IY47) 0.028
IQSEC1 (UniProt Q6DN90) -0.116
IRAK1 (UniProt P51617) 0.022
ITGAV (UniProt P06756) -0.03
KCTD9 (UniProt Q7L273) -0.042
IRF2BPL (UniProt Q9H1B7) -0.05
IRF2BP1 (UniProt Q8IU81) -0.003
ISOC1 (UniProt Q96CN7) -0.038
KAT7 (UniProt O95251) 0.094
JPT1 (UniProt Q9UK76) -0.075
KCTD5 (UniProt Q9NXV2) -0.11
INTS7 (UniProt Q9NVH2) 0.028
IRF3 (UniProt Q14653) -0.002
ITPK1 (UniProt Q13572) 0.026
KAT8 (UniProt Q9H7Z6) -0.013
IPO5 isoform 3 (UniProt O00410) -0.002
ISCA1 isoform 2 (UniProt Q9BUE6) -0.025
JPT2 isoform 3 (UniProt Q9H910) 0.01
KCTD20 (UniProt Q7Z5Y7) 0.035
ITFG1 (UniProt Q8TB96) -0.06
KANSL3 (UniProt Q9P2N6) -0.014
KCT2 (UniProt Q8NC54) -0.037
JUND (UniProt P17535) -0.011
ISY1 isoform 1 (UniProt Q9ULR0) 0.075
ITGB1 (UniProt P05556) -0.012
